“Also recorded” adds a separate entry of the source. Not every detail of the peptide structures is certain; ends, links or a residue may be inferred. Where a SMILES comes first, the peptide text is derived from it. Bridges are numbered along the chain shown (N, C = ends). Roman numbers before positions name the chains, in order.
How the values were obtained:
lipolysaccharide (LPS) = test: In vivo dialysis fluid study, LPS-induced acute peritonitis (Example II); set-up: species or system male Wistar rats
lipopolysaccharide (LPS) = test: Dialysis fluid with or without LPS in mice (Example I); type: in vivo
S. aureus [1] = test: Preliminary in vitro test on blood agar plates; type: cell-based, Staphylococcus aureus; settings: 24 hours at 37 degrees Celsius
S. aureus [2] = test: In vivo gel treatment of inoculated peritoneal catheter exit sites; set-up: species or system white New Zealand rabbits; settings: rabbits, 0.1% gel twice daily, day 6

CC(=O)N[C@@H](CSSC[C@H](NC(C)=O)C(=O)N[C@@H](CCCCN)C(=O)N1CCC[C@H]1C(=O)N[C@H](C(N)=O)C(C)C)C(=O)N[C@@H](CCCCN)C(=O)N1CCC[C@H]1C(=O)N[C@H](C(N)=O)C(C)C [KPV dimer, Val-Pro-Lys-AcCys-s-s-CysAc-Lys-Pro-Val] (I: Ac-CKPV-NH2 / II: Ac-CKPV-NH2; disulfide I:1-II:1)
TNF concentration in plasma and dialysate (lipolysaccharide (LPS); endotoxin-treated rats, 140 μg IV or IP, 7 hours): significant inhibition | peritoneal transport of small and large molecules (dialysate/serum ratio of glucose, urea, creatinine and total plasma) (lipolysaccharide (LPS); rats): did not substantially alter peritoneal transport | TNF concentration versus control group (lipolysaccharide (LPS); rats, absence of endotoxin challenge, IV or IP): no significant difference | diuresis as measured by the ratio of dialysate glucose over serum glucose (lipopolysaccharide (LPS); 7 hr): increase in diuresis | LPS-induced increase in nitric oxide production (nitrite) in plasma and dialysate (lipopolysaccharide (LPS); LPS in the dialysate, given intravenously or included in the dialysate, 7 hours): modulated | loss of fluid from the cavity, water retaining effect of LPS (lipopolysaccharide (LPS); LPS, given by IP or IV injection, 7 hr): increased the loss of fluid from the cavity | net ultrafiltration: loss of fluid from the cavity (lipopolysaccharide (LPS); given IV, volume retrieved after 7 hr subtracted from initial 15 ml): about 12 ml | normal nitric oxide production (nitrite) in plasma and dialysate (lipopolysaccharide (LPS); no LPS, 10^−5 M given IV or into the dialysate, 7 hours): no effect | growth of bacteria on blood agar plates (S. aureus [1]): inhibits growth | bacterial colonies cultured from swabs of catheter exit sites (S. aureus [2]): nor any bacterial colony formation; also recorded: no bacterial colonies were cultured

Source: patent US20050074485A1, “Anti-inflammatory/anti-microbial peptides for use in dialysis” (priority 2003, published 2005)
